At least one structure is not confirmed: it was looked up by name or label, or the drawing left a doubt.
Key:
Akt [1] = assay: Akt kinase assay (histone H2B) in HUVEC lysates; type: cell-based, human; settings: 30 min preincubation with 200 nM wortmannin, then VEGF 100 ng/ml 15 min
HUVECs = assay: HUVEC cell viability, Trypan-blue exclusion assay; type: cell-based, human; settings: 10 or 50 nM wortmannin, VEGF 100 ng/ml, 21 hours
Akt [2] = assay: Akt kinase assay (histone H2B) in cardiac myocyte lysates; type: cell-based, rat; settings: 200 nM wortmannin, IGF-1 50 ng/ml
cardiac myocytes = assay: Hoechst 33342 staining for pyknotic nuclei in cardiac myocytes; type: cell-based, rat; settings: wortmannin included with IGF-1
[3] = test system: neonatal rat cardiac myocytes; assay: Neonatal cardiac myocyte viability, trypan-blue exclusion assay; type: cell-based

COC[C@H]1OC(=O)c2coc3c2[C@@]1(C)C1=C(C3=O)[C@@H]2CCC(=O)[C@@]2(C)C[C@H]1OC(C)=O [wortmannin, Wortmannin]
VEGF-induced Akt activity (Akt [1]): blocked VEGF-induced Akt activity | VEGF-mediated HUVEC survival (HUVECs): Partial inhibition of VEGF-mediated HUVEC survival | IGF-1-activated Akt kinase activity (Akt [2]): completely blocked IGF-1-activated Akt kinase activity | IGF-1 suppression of pyknotic nuclei (cardiac myocytes): reversed | IGF-1-induced cytoprotection ([3]; 200 nM wortmannin, IGF-1 50 ng/ml, 72 hours): abrogated | cardiomyocyte viability ([3]; wortmannin in the absence of IGF-1, 72 hours): no effect on cardiomyocyte viability
